Source: PubChem BioAssay AID248 (DTP/NCI, 2004)
The list shows only some results of the screen, not a fair sample: it gathers tests that were run many times, whatever their T/C, doses with no T/C, and many T/C values between a quarter and a half above the control. Further doses and runs are listed elsewhere. T/C: endpoint of the treated group in % of that of the vehicle group. Some entries give survivors of the animals treated and no T/C: the source files T/C as zero there, which appears to mark a toxic dose or a test without result, not a measured value. Some doses without a T/C left all or most animals alive at the check, yet need not have been tolerated: survival well below the control is almost never listed, so the zero probably covers shortened survival too. Counts of survivors are from the toxicity check (mostly the fifth day) where no day follows; animals may have died later. Schedule codes are those of the source, read here as Q, the interval in days (D) or hours (H), X, the number of doses. Some doses were run more than once; their values stand side by side, smallest first. Some schedules carry Z or #; the key to these is not given. Where survival is the endpoint, this PubChem deposit counts one and a half times the control or more as active, and values a quarter to a half above the control carry no call in these data; other NCI protocols may use other cut-offs. Some T/C values are followed by the survivors on the day toxicity was checked, most often the fifth; where none is given, no animal had died by that day.

Test system: L1210 leukemia ip in BDF1 mice, survival T/C
Assay: NCI In Vivo Anticancer Drug Screen. Data for tumor model L1210 Leukemia (intraperitoneal) in B6D2F1 (BDF1) mice
Conditions: T/C endpoint: mean survival time, higher T/C = longer survival
[1] = dose: 10.0 mg/kg/injection, schedule: Q04DX002 (ip), vehicle: saline + alcohol
[2] = dose: 100.0 mg/kg/injection, schedule: Q01DX009 (ip), vehicle: saline
[3] = dose: 200.0 mg/kg/injection, schedule: Q01DX009 (ip), vehicle: saline
[4] = dose: 400.0 mg/kg/injection, schedule: Q01DX009 (ip), vehicle: saline
[5] = dose: 100.0 mg/kg/injection, schedule: Q01DX009 (ip), vehicle: saline with Tween-80
[6] = dose: 200.0 mg/kg/injection, schedule: Q01DX009 (ip), vehicle: saline with Tween-80
[7] = dose: 100.0 mg/kg/injection, schedule: Q04DX003 (ip), vehicle: saline with Tween-80
[8] = dose: 200.0 mg/kg/injection, schedule: Q04DX003 (ip), vehicle: saline with Tween-80
[9] = dose: 400.0 mg/kg/injection, schedule: Q04DX003 (ip), vehicle: saline with Tween-80

CC1=C(O)C(=O)C(C2=C(O)C(=O)C(C)=C(O)C2=O)=C(O)C1=O
survivor count (dose: 20.0 mg/kg/injection, schedule: Q01DX001 (ip), vehicle: carboxymethylcellulose (CMC)): 0 of 4 | survivor count (dose: 40.0 mg/kg/injection, schedule: Q01DX001 (ip), vehicle: carboxymethylcellulose (CMC)): 0 of 4 | survivor count (dose: 80.0 mg/kg/injection, schedule: Q01DX001 (ip), vehicle: carboxymethylcellulose (CMC)): 0 of 4 | survivor count (dose: 100.0 mg/kg/injection, schedule: Q01DX001 (ip), vehicle: carboxymethylcellulose (CMC)): 0 of 4 | survivor count (dose: 200.0 mg/kg/injection, schedule: Q01DX001 (ip), vehicle: carboxymethylcellulose (CMC)): 0 of 4 | survivor count (dose: 400.0 mg/kg/injection, schedule: Q01DX001 (ip), vehicle: carboxymethylcellulose (CMC)): 0 of 4 | survivor count (dose: 2000.0 micrograms/kg/injection, schedule: Q01DX Z (ip), vehicle: carboxymethylcellulose (CMC)): 1 of 6

CCC[CH2][Sn]1([CH2]CCC)[O]CC2(CCCCC2)C[O]1
T/C [1]: 144 % of control | survivor count [1]: 2 of 3 | survivor count (dose: 40.0 mg/kg/injection, schedule: Q04DX002 (ip), vehicle: saline + alcohol): 2 of 3 | survivor count (dose: 100.0 mg/kg/injection, schedule: Q04DX002 (ip), vehicle: saline + alcohol): 0 of 3 | survivor count (dose: 200.0 mg/kg/injection, schedule: Q04DX002 (ip), vehicle: saline + alcohol): 0 of 3 | survivor count (dose: 400.0 mg/kg/injection, schedule: Q04DX002 (ip), vehicle: saline + alcohol): 0 of 3

Cc1nc(CN(C)C)c2cnccn12
survivor count [2]: 3 of 6 | survivor count (dose: 200.0 mg/kg/injection, schedule: Q04DX003 (ip), vehicle: saline): 2 of 6 | survivor count (dose: 400.0 mg/kg/injection, schedule: Q04DX003 (ip), vehicle: saline): 1 of 6

ON1CCCC1
survivor count (dose: 400.0 mg/kg/injection, schedule: Q01DX009 (ip), vehicle: water): 0 of 6

NC(Cc1c[nH]c2ccc(F)cc12)C(=O)O (centres undefined)
survivor count (dose: 400.0 mg/kg/injection, schedule: Q04DX003 (ip), vehicle: other): 5 of 6

Cc1nc(Cl)c(Cl)[nH]1
survivor count (dose: 400.0 mg/kg/injection, schedule: Q01DX009 (ip), vehicle: saline with Tween-80): 0 of 6

NCCc1cc(O)c(O)c(O)c1
T/C [3]: 125 % of control | T/C [4]: 147 % of control

[CH3][Sn]([CH3])([Br])[CH2]CCBr
survivor count (dose: 0.39 mg/kg/injection, schedule: Q01DX009 (ip), vehicle: saline): 3 of 3 | survivor count (dose: 50.0 mg/kg/injection, schedule: Q01DX009 (ip), vehicle: saline): 0 of 3 | survivor count [2]: 0 of 3 | survivor count [3]: 0 of 3

CC(=O)Nc1ccc2c(Nc3ccc(NS(C)(=O)=O)cc3)c3ccccc3nc2c1
T/C (dose: 0.2 mg/kg/injection, schedule: Q01DX009 (ip), vehicle: Klucel (hydroxypropylcellulose) (HPC)): 132 % of control | T/C (dose: 0.4 mg/kg/injection, schedule: Q01DX009 (ip), vehicle: Klucel (hydroxypropylcellulose) (HPC)): 145 % of control | T/C (dose: 1.6 mg/kg/injection, schedule: Q01DX009 (ip), vehicle: saline with Tween-80): 128 % of control | T/C (dose: 2.4 mg/kg/injection, schedule: Q01DX009 (ip), vehicle: saline with Tween-80): 147 % of control [5 of 6 alive] | T/C (dose: 3.0 mg/kg/injection, schedule: Q01DX009 (sc), vehicle: saline): 142 % of control | T/C (dose: 3.6 mg/kg/injection, schedule: Q01DX009 (ip), vehicle: saline with Tween-80): 139 % of control | T/C (dose: 6.25 mg/kg/injection, schedule: Q01DX009 (ip), vehicle: saline with Tween-80): 136 % of control | T/C (dose: 6.25 mg/kg/injection, schedule: Q01DX009 (sc), vehicle: saline): 138 % of control | T/C (dose: 12.5 mg/kg/injection, schedule: Q01DX009 (ip), vehicle: Klucel (hydroxypropylcellulose) (HPC)): 127 % of control | survivor count (dose: 25.0 mg/kg/injection, schedule: Q01DX009 (ip), vehicle: saline with Tween-80): 6 of 6 | survivor count (dose: 25.0 mg/kg/injection, schedule: Q01DX009 (sc), vehicle: saline): 10 of 10 | survivor count (dose: 50.0 mg/kg/injection, schedule: Q01DX009 (ip), vehicle: saline with Tween-80): 6 of 6 | survivor count [5]: 6 of 6 | survivor count [6]: 5 of 6

c1cc2c(c(NC3=NCCCO3)c1)CCCC2
survivor count [7]: 1 of 6 | survivor count [8]: 0 of 6 | survivor count [9]: 0 of 6

C[N+]1(CC2CO2)CCCCCC1 (centres undefined)
survivor count (dose: 150.0 mg/kg/injection, schedule: Q01DX001 (ip), vehicle: saline): 3 of 6 | survivor count (dose: 300.0 mg/kg/injection, schedule: Q01DX001 (ip), vehicle: saline): 0 of 6

CO[Si](OC)(OC)OC
survivor count [5]: 3 of 6 | survivor count [8]: 0 of 6 | survivor count [9]: 0 of 6

O=C(O)c1cc([N+](=O)[O-])cc([N+](=O)[O-])c1O
survivor count (dose: 400.0 mg/kg/injection, schedule: Q04DX002 (ip), vehicle: saline with Tween-80): 0 of 3

CC1(C)N=C(N)N=C(N)N1c1ccc(OCCNC(=O)Nc2ccc(S(=O)(=O)F)cc2)c(Cl)c1
survivor count [3]: 2 of 6 | survivor count [4]: 0 of 6

CC(=O)O/N=C(/C)c1ccccc1
survivor count (dose: 300.0 mg/kg/injection, schedule: Q01DX009 (ip), vehicle: saline sonified): 3 of 6

O=C(N/N=C/Cc1ccccc1)C(=O)N/N=C/Cc1ccccc1
survivor count [6]: 1 of 3

CC1(C)N=C(N)N=C(N)N1c1ccc(C(F)(F)F)cc1
survivor count (dose: 200.0 mg/kg/injection, schedule: Q01DX001 (ip), vehicle: saline): 0 of 6 | survivor count (dose: 400.0 mg/kg/injection, schedule: Q01DX001 (ip), vehicle: saline): 0 of 6

O=C(Cc1cccc2ccccc12)N/N=C/c1ccccc1Cl
survivor count (dose: 200.0 mg/kg/injection, schedule: Q01DX009 (ip), vehicle: Klucel (hydroxypropylcellulose) (HPC)): 6 of 6

CCN(CC)CCN1C(=O)C(C)C=C(C)C=C1C (centres undefined)
survivor count (dose: 150.0 mg/kg/injection, schedule: Q01DX001 (ip), vehicle: other): 3 of 6 | survivor count (dose: 300.0 mg/kg/injection, schedule: Q01DX001 (ip), vehicle: other): 0 of 6

C=CCC(CC)C(=O)NC(=O)N1CCCc2ccccc21 (centres undefined)
survivor count (dose: 400.0 mg/kg/injection, schedule: Q01DX001 (ip), vehicle: saline with Tween-80): 5 of 6

CCCC[As](=O)(O)CCO
survivor count [7]: 0 of 6 and 1 of 6 | survivor count [8]: 0 of 6 | survivor count [9]: 0 of 6

NNc1c2ccccc2nc2ccccc12
survivor count (dose: 5.0 mg/kg/injection, schedule: Q04DX003 (ip), vehicle: Klucel (hydroxypropylcellulose) (HPC)): 0 of 6 | survivor count (dose: 10.0 mg/kg/injection, schedule: Q04DX003 (ip), vehicle: Klucel (hydroxypropylcellulose) (HPC)): 0 of 6 | survivor count (dose: 20.0 mg/kg/injection, schedule: Q04DX003 (ip), vehicle: Klucel (hydroxypropylcellulose) (HPC)): 0 of 6 | survivor count (dose: 50.0 mg/kg/injection, schedule: Q04DX003 (ip), vehicle: Klucel (hydroxypropylcellulose) (HPC)): 0 of 6 | survivor count (dose: 100.0 mg/kg/injection, schedule: Q04DX003 (ip), vehicle: Klucel (hydroxypropylcellulose) (HPC)): 0 of 6 | survivor count (dose: 200.0 mg/kg/injection, schedule: Q04DX003 (ip), vehicle: Klucel (hydroxypropylcellulose) (HPC)): 0 of 6 | survivor count (dose: 400.0 mg/kg/injection, schedule: Q04DX003 (ip), vehicle: Klucel (hydroxypropylcellulose) (HPC)): 0 of 6

CS(=O)(=O)c1nc2ccccc2[nH]1
survivor count (dose: 400.0 mg/kg/injection, schedule: Q04DX002 (ip), vehicle: Klucel (hydroxypropylcellulose) (HPC)): 3 of 3
